# Measurements: US20190169302A1 (SORRENTO THERAPEUTICS, published 2019)
# B1: 2B4 wild type anti-OX40 antibody (antibody, V domains shown)
# VH: QMQLVQSGAEVKKPGASVKVSCKTSGYTFTGYYLHWVRQAPGQGLEWMGIINPSDGSTRNAQKFEGRVTMTRDTSTSTVYMELSSLSPEDTAVYYCARDLEYIGSGSLSWFDPWGQGTLVTVSS
# VL: QPVLTQPASVSGSPGQSITISCTGTSSDLGAYDYVSWYQQQPGQAPKLIIYDVNNRPSGVSNRFSGSKSGNTASLTISGLQAEDEADYYCSSYTSSSTLVYVFGTGTKVTVL
# notes: Fully human antibody of an IgG class, captured or detected through human Fc; the isotype control used was IgG1; also called 2B4 (WT); wild type 2B4
# Target: cynomolgus OX40 (cynomolgus (result sentence); rhesus (method))
# Test: ELISA, OX40 antigen captured on Ni-NTA plate, antibody at 1 ug/mL
binder,measurement,value
B1,binding,binds

# Results are given in words; binding and its absence hold for the method and conditions named. A result given as binding can be weak or reduced; the word gives no strength.
